Reference: the supplement of paper PMC10849652
Some of the results follow. Residues, ends and D or L forms follow the SMILES beside them. *: point of attachment. Cbz = O=C(OCc1ccccc1)*

By UniProt entry, the sequences of proteins in these tests, tags left out. Where a name states a change or a piece, a line headed by the entry shows the natural chain unless it says otherwise.
UniProt Q92551: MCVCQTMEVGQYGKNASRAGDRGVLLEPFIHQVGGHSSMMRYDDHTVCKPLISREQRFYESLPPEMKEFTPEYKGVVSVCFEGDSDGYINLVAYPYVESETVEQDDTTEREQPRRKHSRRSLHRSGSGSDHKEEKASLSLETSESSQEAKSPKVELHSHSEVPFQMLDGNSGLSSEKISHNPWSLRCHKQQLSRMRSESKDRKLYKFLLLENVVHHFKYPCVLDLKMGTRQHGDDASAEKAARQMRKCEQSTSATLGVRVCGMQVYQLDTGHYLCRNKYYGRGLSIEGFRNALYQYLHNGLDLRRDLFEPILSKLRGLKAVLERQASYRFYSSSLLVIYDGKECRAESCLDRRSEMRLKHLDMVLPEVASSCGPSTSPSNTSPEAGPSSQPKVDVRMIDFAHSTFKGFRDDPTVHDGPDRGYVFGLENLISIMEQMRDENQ
UniProt O14920: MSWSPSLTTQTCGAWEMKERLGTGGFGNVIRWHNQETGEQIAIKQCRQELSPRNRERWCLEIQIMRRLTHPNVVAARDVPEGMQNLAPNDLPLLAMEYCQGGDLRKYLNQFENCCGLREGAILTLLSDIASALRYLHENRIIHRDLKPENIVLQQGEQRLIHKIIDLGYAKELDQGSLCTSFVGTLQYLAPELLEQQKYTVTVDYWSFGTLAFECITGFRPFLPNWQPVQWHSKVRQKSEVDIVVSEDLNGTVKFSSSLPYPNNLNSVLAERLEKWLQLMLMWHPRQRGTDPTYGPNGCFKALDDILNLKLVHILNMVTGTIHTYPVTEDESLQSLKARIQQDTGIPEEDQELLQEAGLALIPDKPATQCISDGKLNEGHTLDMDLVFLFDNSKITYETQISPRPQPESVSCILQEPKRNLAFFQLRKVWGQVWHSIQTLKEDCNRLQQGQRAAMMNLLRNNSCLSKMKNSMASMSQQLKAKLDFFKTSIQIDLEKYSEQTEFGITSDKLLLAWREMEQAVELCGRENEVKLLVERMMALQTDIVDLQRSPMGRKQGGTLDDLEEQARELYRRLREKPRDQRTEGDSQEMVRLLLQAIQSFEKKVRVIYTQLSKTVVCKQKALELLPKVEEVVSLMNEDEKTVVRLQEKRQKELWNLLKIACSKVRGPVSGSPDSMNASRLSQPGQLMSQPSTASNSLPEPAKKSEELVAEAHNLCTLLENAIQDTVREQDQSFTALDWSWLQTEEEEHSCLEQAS
UniProt Q08334: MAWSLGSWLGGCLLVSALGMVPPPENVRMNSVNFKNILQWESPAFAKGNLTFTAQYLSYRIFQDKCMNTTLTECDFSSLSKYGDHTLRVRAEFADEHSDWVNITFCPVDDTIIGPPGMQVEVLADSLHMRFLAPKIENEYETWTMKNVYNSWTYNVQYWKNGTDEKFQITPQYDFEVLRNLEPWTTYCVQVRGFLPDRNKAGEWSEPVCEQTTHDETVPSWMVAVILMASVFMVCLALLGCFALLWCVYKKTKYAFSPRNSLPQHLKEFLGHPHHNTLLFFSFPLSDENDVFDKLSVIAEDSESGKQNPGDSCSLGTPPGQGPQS
UniProt P28290: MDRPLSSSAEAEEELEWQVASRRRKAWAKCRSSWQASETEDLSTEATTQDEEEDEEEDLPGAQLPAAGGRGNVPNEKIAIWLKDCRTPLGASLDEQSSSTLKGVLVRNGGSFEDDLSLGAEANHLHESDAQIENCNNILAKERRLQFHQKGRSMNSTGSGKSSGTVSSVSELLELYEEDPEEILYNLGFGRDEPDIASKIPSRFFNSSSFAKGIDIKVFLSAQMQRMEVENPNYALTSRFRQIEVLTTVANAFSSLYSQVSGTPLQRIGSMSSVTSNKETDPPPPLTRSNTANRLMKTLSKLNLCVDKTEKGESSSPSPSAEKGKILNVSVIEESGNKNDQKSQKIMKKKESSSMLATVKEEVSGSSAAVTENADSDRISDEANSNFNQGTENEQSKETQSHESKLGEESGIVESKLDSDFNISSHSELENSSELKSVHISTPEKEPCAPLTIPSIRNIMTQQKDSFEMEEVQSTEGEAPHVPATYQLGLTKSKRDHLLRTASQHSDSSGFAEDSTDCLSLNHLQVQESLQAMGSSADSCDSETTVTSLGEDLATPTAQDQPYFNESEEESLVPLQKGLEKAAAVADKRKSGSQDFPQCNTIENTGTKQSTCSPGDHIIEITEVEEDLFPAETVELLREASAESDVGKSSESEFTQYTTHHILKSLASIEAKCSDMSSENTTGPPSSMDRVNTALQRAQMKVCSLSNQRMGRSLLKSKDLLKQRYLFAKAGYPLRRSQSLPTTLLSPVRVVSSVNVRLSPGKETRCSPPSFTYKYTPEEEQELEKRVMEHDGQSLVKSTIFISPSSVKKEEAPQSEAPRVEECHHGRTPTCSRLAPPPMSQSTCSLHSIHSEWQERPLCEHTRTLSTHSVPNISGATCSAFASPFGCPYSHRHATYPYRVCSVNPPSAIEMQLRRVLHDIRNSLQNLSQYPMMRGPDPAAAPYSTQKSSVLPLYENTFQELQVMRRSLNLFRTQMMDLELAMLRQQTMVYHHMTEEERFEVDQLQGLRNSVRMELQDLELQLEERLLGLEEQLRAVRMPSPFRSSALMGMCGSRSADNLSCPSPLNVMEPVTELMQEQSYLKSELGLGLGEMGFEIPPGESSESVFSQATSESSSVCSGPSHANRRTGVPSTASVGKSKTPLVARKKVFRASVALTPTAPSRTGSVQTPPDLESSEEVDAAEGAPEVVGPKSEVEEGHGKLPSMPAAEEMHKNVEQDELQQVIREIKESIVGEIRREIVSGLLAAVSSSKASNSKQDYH
UniProt Q13478: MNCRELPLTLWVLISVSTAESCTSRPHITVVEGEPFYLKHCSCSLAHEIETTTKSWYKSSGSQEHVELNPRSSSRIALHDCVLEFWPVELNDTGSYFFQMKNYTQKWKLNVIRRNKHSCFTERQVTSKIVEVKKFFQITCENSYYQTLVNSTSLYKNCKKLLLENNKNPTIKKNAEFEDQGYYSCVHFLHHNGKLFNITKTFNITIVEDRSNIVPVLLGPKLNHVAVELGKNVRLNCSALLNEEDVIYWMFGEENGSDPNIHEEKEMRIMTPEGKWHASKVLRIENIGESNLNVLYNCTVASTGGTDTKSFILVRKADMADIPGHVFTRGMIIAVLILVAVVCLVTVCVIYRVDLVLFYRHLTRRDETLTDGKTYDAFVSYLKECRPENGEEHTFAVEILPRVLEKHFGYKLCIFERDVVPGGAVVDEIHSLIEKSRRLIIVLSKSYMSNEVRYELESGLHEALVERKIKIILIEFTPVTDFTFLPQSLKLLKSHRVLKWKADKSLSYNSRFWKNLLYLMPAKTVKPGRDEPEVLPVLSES
UniProt Q8NBZ0, whole entry, looked up: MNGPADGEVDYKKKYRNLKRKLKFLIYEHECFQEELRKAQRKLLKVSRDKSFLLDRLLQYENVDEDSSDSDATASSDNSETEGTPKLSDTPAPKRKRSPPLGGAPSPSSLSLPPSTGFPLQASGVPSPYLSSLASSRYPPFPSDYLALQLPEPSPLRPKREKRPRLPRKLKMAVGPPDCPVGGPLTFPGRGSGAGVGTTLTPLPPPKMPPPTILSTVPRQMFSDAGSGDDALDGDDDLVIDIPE
UniProt P58166: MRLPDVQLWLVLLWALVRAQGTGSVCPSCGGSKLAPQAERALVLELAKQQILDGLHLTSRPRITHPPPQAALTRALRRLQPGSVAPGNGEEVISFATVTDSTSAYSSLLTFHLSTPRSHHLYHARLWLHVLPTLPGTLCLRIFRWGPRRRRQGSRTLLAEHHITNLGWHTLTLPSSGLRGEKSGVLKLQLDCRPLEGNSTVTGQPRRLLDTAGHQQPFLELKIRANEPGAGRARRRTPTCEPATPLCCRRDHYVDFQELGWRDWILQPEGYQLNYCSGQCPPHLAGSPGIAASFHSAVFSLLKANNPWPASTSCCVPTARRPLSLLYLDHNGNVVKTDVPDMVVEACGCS
UniProt P08514, whole entry, looked up: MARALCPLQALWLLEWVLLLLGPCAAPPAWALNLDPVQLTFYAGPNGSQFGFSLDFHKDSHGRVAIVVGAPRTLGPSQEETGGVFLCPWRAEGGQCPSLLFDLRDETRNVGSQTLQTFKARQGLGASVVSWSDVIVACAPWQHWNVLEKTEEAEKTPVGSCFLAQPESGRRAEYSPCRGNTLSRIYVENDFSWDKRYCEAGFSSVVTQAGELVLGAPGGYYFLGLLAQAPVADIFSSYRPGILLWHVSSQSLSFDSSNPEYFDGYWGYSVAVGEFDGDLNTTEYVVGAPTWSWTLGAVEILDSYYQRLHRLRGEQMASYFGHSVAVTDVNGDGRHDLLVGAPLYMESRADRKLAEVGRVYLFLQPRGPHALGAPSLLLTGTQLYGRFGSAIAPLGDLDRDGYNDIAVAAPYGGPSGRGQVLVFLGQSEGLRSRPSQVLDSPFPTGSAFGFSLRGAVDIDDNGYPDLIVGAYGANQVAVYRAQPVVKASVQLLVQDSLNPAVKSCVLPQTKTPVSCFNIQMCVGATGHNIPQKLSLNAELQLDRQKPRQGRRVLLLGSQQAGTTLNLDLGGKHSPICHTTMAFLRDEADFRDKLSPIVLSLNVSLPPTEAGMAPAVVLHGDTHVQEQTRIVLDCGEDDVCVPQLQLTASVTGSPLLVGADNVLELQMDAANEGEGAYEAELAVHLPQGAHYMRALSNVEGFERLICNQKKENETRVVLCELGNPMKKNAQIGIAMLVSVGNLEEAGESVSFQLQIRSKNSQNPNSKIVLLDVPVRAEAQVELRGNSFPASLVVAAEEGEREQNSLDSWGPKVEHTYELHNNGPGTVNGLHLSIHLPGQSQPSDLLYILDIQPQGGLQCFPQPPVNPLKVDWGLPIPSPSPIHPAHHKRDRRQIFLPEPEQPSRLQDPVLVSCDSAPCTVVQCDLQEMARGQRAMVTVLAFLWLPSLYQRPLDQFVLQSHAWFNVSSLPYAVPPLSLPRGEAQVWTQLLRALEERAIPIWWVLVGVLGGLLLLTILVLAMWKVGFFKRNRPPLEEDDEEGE
UniProt Q9NQX7: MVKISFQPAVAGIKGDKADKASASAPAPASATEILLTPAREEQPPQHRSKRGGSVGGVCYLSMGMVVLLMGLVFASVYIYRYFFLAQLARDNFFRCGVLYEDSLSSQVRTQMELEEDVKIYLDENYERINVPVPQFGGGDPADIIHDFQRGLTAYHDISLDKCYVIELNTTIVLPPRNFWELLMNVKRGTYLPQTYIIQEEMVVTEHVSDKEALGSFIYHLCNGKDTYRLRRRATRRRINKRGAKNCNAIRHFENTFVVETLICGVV
UniProt Q96F46, whole entry, looked up: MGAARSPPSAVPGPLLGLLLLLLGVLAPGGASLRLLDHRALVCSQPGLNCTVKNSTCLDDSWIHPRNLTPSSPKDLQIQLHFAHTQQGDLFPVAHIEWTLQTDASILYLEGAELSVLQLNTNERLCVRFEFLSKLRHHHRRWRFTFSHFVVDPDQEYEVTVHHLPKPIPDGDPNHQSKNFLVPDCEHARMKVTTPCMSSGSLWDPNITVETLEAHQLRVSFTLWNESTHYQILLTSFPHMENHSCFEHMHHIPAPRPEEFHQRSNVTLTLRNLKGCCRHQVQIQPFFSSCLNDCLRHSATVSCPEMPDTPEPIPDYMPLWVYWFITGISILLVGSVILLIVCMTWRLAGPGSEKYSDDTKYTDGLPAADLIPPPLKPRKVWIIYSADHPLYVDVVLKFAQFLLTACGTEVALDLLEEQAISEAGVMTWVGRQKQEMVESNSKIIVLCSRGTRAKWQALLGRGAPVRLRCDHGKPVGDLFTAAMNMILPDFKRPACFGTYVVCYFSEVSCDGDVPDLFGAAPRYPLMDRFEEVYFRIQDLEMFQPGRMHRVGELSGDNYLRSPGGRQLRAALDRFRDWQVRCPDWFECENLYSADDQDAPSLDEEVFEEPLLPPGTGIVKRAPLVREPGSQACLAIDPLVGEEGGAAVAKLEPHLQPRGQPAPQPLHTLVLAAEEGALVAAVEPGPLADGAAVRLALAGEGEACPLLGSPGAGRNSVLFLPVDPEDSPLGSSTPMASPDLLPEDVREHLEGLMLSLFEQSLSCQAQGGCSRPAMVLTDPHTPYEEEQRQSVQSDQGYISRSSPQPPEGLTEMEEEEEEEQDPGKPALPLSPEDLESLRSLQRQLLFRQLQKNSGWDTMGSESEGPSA
UniProt Q8WYH8, whole entry, looked up: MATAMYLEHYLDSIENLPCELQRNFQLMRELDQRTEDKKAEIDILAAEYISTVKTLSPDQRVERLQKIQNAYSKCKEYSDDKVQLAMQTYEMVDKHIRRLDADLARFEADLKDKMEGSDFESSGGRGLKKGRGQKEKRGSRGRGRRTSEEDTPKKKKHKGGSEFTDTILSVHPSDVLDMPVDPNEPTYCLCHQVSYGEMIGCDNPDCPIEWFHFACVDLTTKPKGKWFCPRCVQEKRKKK

What was measured:
Assay in all cases: log2 fold change, soluble protein after heating vs DMSO (PISA); higher = thermal stabilisation; K562 cells, 10 uM, 30 min; active = over 0.2 and 3.5 SD of the protein, either way, in both replicates (recomputed)
erlotinib = compound: C#Cc1cccc(Nc2ncnc3cc(OCCOC)c(OCCOC)cc23)c1 [erlotinib]
Summary of the method: (§1)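 K562 cells at 2×10^6 cells/mL were exposed to 10 μM compound for 30 min, then aliquots were heated for 3 min across 48°C-58°C, pooled, and extracted in PBS containing 0.5% NP-40 at 4°C. The supernatant after 21,000xg for 90 min was taken as soluble protein and measured by TMTpro 16plex LC-MS/MS with channel sums equalised. Thermal stability is reported relative to control samples, with values from duplicates. Fold changes are given on a log2 scale.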

[1] = compound: C/C(=N\NC(=O)C1=CC(=CC=C1)S(=O)(=O)N2CCOCC2)/C3=C(C=CC(=C3)Cl)O
Summary of the method: as §1

[2] = compound: C1=CC(=C(C=C1Cl)C2=NC3=NC=CN=C3C(=N2)NC4=CC=NC=C4)F
Summary of the method: as §1

[3] = compound: C1=CC(=CC=C1C2=NC3=C(N2)C=C(C=C3)C(=O)N)OC4=CC=C(C=C4)Cl
Summary of the method: as §1

[4] = compound: C1=CC2=C(C=CC(=C2)/C=C\3/C(=O)NC(=NCC4=CC=CS4)S3)N=C1
Summary of the method: as §1

[5] = compound: C1=CC2=NC=CN=C2C=C1/C=C/3\C(=O)NC(=O)S3
Summary of the method: as §1

[6] = compound: C1=CC=C(C=C1)C2=NC(=C(N2)C3=CC=NC=C3)C4=CC(=C(C=C4)Cl)O
Summary of the method: as §1

[7] = compound: C1=CC=C2C(=C1)C3=NNC4=CC=CC(=C43)C2=O
Summary of the method: as §1

[8] = compound: C1CCN(C1)C(=O)NC2=CC=CC(=C2)NC3=NC=C(C(=N3)NCCC4=CN=CN4)Br
Summary of the method: as §1

[9] = compound: C1CN(CCC1(CC2=CC=C(C=C2)Cl)N)C3=NC=NC4=C3C=CN4
Summary of the method: as §1

ibrutinib = compound: C=CC(=O)N1CCC[C@@H](n2nc(-c3ccc(Oc4ccccc4)cc3)c3c(N)ncnc32)C1 [ibrutinib]
Summary of the method: as §1

[10] = compound: CC(=O)c1cnc2ccc(-c3cc(Cl)c(O)c(Cl)c3)nc2c1N[C@H]1CC[C@H](CN(C)C)CC1
Summary of the method: as §1

ralimetinib = compound: CC(C)(C)Cn1c(N)nc2ccc(-c3[nH]c(C(C)(C)C)nc3-c3ccc(F)cc3)nc21 [ralimetinib]
Summary of the method: as §1

[11] = compound: CC(C)(O)CC(=O)NCCn1ccc2ncnc(Nc3ccc(Oc4cccc(C(F)(F)F)c4)c(Cl)c3)c21
Summary of the method: as §1

[12] = compound: CC(C)C1=C2N=C(C=C(N2N=C1)NCC3=CC=CC=C3)NCCCCCCN
Summary of the method: as §1

[13] = compound: CC(C)C[C@@H](C=O)NC(=O)[C@H](CC(C)C)NC(=O)[C@H](CC(C)C)NC(=O)OCc1ccccc1
Summary of the method: as §1

[14] = compound: CC1=C(C2=C(C=C1)C(=O)C3=CC=CC=C3N2CCCN)C
Summary of the method: as §1

IRAK-1-4 Inhibitor I = compound: C1COCCN1CCN2C3=CC=CC=C3N=C2NC(=O)C4=CC(=CC=C4)[N+](=O)[O-] [IRAK-1-4 Inhibitor I]
Summary of the method: as §1

pinometostat = compound: CC(C)N(C[C@H]1O[C@@H](n2cnc3c(N)ncnc32)[C@H](O)[C@@H]1O)[C@H]1C[C@@H](CCc2nc3cc(C(C)(C)C)ccc3[nH]2)C1 [pinometostat]
Summary of the method: as §1

[15] = compound: CC1=C(C(CC(=O)N1)C2=CC=C(C=C2)C(F)(F)F)C(=O)NC3=C(C=C4C(=C3)C=NN4)F
Summary of the method: as §1

Target | log2 fold change (erlotinib) | log2 fold change [1] | log2 fold change [2] | log2 fold change [3] | log2 fold change [4] | log2 fold change [5] | log2 fold change [6] | log2 fold change [7] | log2 fold change [8] | log2 fold change [9] | log2 fold change (ibrutinib) | log2 fold change [10] | log2 fold change (ralimetinib) | log2 fold change [11] | log2 fold change [12] | log2 fold change [13] | log2 fold change [14] | log2 fold change (IRAK-1-4 Inhibitor I) | log2 fold change (pinometostat) | log2 fold change [15]
IP6K1 (UniProt Q92551) | inactive: -0.054 | inactive: 0.017 | inactive: -0.24 | inactive: 0 | inactive: 0.25 | inactive: -0.025 | inactive: -0.088 | inactive: 0.142 | inactive: -0.083 | inactive: 0.067 | inactive: 0.05 | inactive: -0.154 | inactive: -0.159 | inactive: -0.295 | active: -0.667 | inactive: 0.069 | inactive: 0.095 |  |  | 
IKBKB (UniProt O14920) | inactive: -0.159 |  | inactive: -0.394 | inactive: 0.109 |  | inactive: -0.092 | inactive: 0.08 |  | inactive: -0.021 | inactive: -0.178 | inactive: -0.01 |  | inactive: 0.231 | inactive: 0.017 | inactive: -0.102 | inactive: 0.233 | inactive: -0.118 | inactive: -0.318 | inactive: 0.332 | inactive: 0.141
IL10RB (UniProt Q08334) | inactive: 0.05 | inactive: -0.089 | inactive: -0.106 | inactive: 0.053 | inactive: 0 | inactive: -0.03 |  | inactive: 0.029 | inactive: 0.037 | inactive: 0.075 | inactive: 0.079 | inactive: 0.09 |  | inactive: -0.09 | inactive: 0.063 |  | inactive: -0.089 | inactive: 0.027 | inactive: 0.04 | 
INPP5K (UniProt Q9BT40) | inactive: 0.076 |  | inactive: -0.211 | inactive: 0.018 |  |  | inactive: 0.044 |  | inactive: -0.003 | inactive: -0.071 |  |  | inactive: -0.058 | inactive: -0.122 | inactive: -0.034 | inactive: -0.09 | inactive: 0.127 | inactive: 0.053 | inactive: 0.097 | inactive: -0.018
ITPRID2 (UniProt P28290) | inactive: 0.022 |  | inactive: -0.133 | inactive: -0.268 |  |  | inactive: -0.213 |  |  |  |  |  | inactive: -0.025 | inactive: 0.238 | active: -0.686 | inactive: 0.063 |  | inactive: 0.004 | inactive: 0.03 | 
IL18R1 (UniProt Q13478) | inactive: -0.4 |  |  | inactive: -0.033 |  | inactive: -0.114 |  |  |  |  | inactive: 0.466 |  |  |  | inactive: 0.125 |  |  | inactive: -0.101 | inactive: -0.52 | inactive: -0.079
IFNGR1 (UniProt P15260) | inactive: 0.256 | inactive: 0.003 | inactive: 0.156 | inactive: -0.208 | inactive: -0.033 | inactive: -0.033 | inactive: -0.066 | inactive: -0.035 | inactive: 0.048 | inactive: 0.247 | inactive: 0.224 | inactive: -0.086 | inactive: -0.017 | inactive: -0.067 | inactive: 0.199 | inactive: 0.14 | inactive: -0.093 |  |  | 
INO80E (UniProt Q8NBZ0) | inactive: 0.114 | inactive: -0.183 |  | inactive: -0.138 | inactive: -0.076 | inactive: 0.015 | inactive: 0.072 | inactive: 0.022 | inactive: -0.087 | inactive: 0.037 | inactive: -0.107 | inactive: -0.096 | inactive: -0.015 |  | inactive: -0.131 | inactive: 0.082 | inactive: -0.065 | inactive: -0.035 | inactive: 0.064 | 
INHBE (UniProt P58166) | inactive: -0.102 |  |  | inactive: -0.125 |  | inactive: 0.148 |  |  |  |  | inactive: -0.004 |  |  |  | inactive: 0.147 |  |  |  |  | 
ITGA2B (UniProt P08514) | inactive: -0.046 | inactive: -0.051 | inactive: 0.023 | inactive: 0.06 | inactive: -0.023 |  | inactive: 0 | inactive: -0.133 | inactive: 0.065 | inactive: -0.13 |  | inactive: -0.045 | inactive: 0.054 | inactive: -0.172 | inactive: 0.462 | inactive: 0.026 | inactive: -0.121 | inactive: -0.045 | inactive: -0.064 | 
ITM2C (UniProt Q9NQX7) | inactive: -0.078 | inactive: -0.019 | inactive: 0.013 | inactive: -0.297 | inactive: -0.023 | inactive: 0.062 | inactive: -0.029 | inactive: 0.052 |  |  | inactive: -0.069 | inactive: -0.07 | inactive: -0.063 | inactive: -0.186 | active: -0.445 | inactive: 0.036 |  |  |  | 
IL17RA (UniProt Q96F46) |  | inactive: -0.097 |  |  | inactive: 0.051 |  |  | inactive: -0.015 | inactive: -0.03 | inactive: 0.103 |  | inactive: -0.052 |  |  |  |  | inactive: 0.062 |  |  | 
IDS (UniProt P22304) |  |  |  |  |  |  | inactive: -0.187 |  |  |  |  |  | inactive: -0.158 |  |  | inactive: 0.039 |  |  |  | 
ING5 (UniProt Q8WYH8) | inactive: 0.273 |  |  | inactive: -0.119 |  |  |  |  | inactive: 0.003 | inactive: 0.286 |  |  |  |  | inactive: -0.395 |  | inactive: 0.03 | inactive: 0.101 | inactive: 0.097 | 
IQGAP3 (UniProt Q86VI3) |  |  |  |  |  |  | inactive: -0.14 |  |  |  |  |  | inactive: 0.085 |  |  | inactive: 0.165 |  |  |  | 

Individual results from the list:
Under log2 fold change (erlotinib), INHBE (UniProt P58166) has the entry inactive: -0.102
Under log2 fold change [11], ITGA2B (UniProt P08514) has the entry inactive: -0.172
